Data from PubChem BioAssay AID2685 (National Center for Advancing Translational Sciences (NCATS), 2010).
The list shows a part of the results. Shown are side measurements of this screen, not its main read-out; they come without a call. Compounds called inactive in the main read-out are mostly missing here. Words in brackets tell the shape of the fitted curve; partial curves, single points and poor fits give uncertain potencies.

Assay: qHTS Assay for Lipid Storage Modulators in Drosophila S3 Cells;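 for cell number change: cells counted by Cell Tracker Red CMTPX staining in the red channel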
Details: BODIPY lipid droplet fluorescence, 18-24 h; for cell number change: measured here: cell count max response, cells fed with added oleic acid
Method in brief: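 Drosophila S3 cells loaded with oleic acid (400 uM, as added) and compounds at several concentrations; lipid droplets imaged by 488-nm laser-scanning cytometry, 500–530 nm intensity and object ratio to cell channel. Percent activity normalized to 20 uM Triacsin C.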

[1] = measured here: lipid fluorescence (Fed channel) AC50, cells fed with added oleic acid
[2] = measured here: cell number channel AC50, cells fed with added oleic acid

Compound | cell number change | AC50 [1] | AC50 [2]
CC(C)c1nc2scc(-c3ccc(Cl)cc3)c2c(=O)n1N | 25.5% | 29.1 µM [rising, single point] | 
Cc1ccc(CCNC(=O)C2CCN(S(=O)(=O)N3CCCC3)CC2)cc1 | -20.4% | 3.66 µM [falling, partial curve] | 
Cc1cccc(CS(=O)(=O)Cc2ccc(C(=O)NC3CCCCCC3)o2)c1 |  | 20.6 µM [falling, partial curve] | 
Cn1nc(-c2ccc3c(c2)OCCO3)c2ccccc2c1=O | 52.6% | 29.1 µM [rising, partial curve, poor fit] | 
COc1ccccc1CNc1cc(-c2ccccc2)ccc1OC | 10% | 0.164 µM [falling, full curve] | 0.13 µM [falling, full curve, poor fit]
O=C(Cn1ccc(NC(=O)OCc2ccccc2)nc1=O)NCCCc1ccccc1 | -2.39% | 0.651 µM [falling, single point] | 
CCCCCCCC(O)CC(CC1CCCCC1)C(=O)NN (stereo not drawn) | 19.6% |  | 
C=CCSc1nnc2c(n1)OC(c1ccccn1)N(C(C)=O)c1ccccc1-2 (stereo not drawn) | -24.1% | 0.651 µM [falling, full curve, poor fit] | 0.206 µM [falling, full curve, poor fit]
O=C(NC1CCCCC1)c1cccc(Cn2cc(Cl)cn2)c1 | 68% |  | 11.6 µM [rising, partial curve]
CCCSc1ccc2nc(NC(=O)OC)[nH]c2c1 | -2.7% | 4.11 µM [falling, single point] | 
COc1cc(CN(C)Cc2nc3cc(C(F)(F)F)ccc3c(=O)[nH]2)ccc1OC(F)F | -25.5% | 2.06 µM [falling, partial curve, poor fit] | 6.51 µM [falling, single point]
O=C(O)c1ccc(N2CC3CC(C2)c2cccc(=O)n2C3)c(NC(=S)Nc2ccc(Br)cc2)c1 (stereo not drawn) | -19.1% |  | 
CC(C)C[C@H]1CNC(=O)C(=O)N1C[C@H](C)NC(=O)Cc1ccccc1 | 11.3% |  | 
CCCCc1ncc(CN2CCC(n3nccc3NC(=O)c3ccccc3OC)CC2)[nH]1 | 22.7% | 6.51 µM [falling, partial curve, poor fit] | 
COc1cccc(-n2cnc(=O)c3cccnc32)c1 | 14.7% |  | 0.651 µM [rising, full curve, poor fit]
NS(=O)(=O)c1ccc(C(=O)Nc2ccc(-c3nc4cccnc4s3)cc2)cc1 |  | 0.0731 µM [falling, full curve, poor fit] | 
Cc1ccc(O)c(C(=O)c2cc(C#N)c(=O)n(C(C)c3ccccc3)c2)c1 (stereo not drawn) | -13.7% | 14.6 µM [falling, single point] | 
CCOC(=O)c1cc2c(=O)[nH]ccc2nc1C | -27.1% | 23.1 µM [falling, single point] | 
Cc1cc2c(c(=O)n1CCc1ccccc1)C(C(C)C)C(C#N)=C(N)O2 (stereo not drawn) | 116% | 1.3 µM [rising, full curve] | 1.3 µM [rising, full curve]
Cc1cc(C(F)(F)F)c2sc(N)nc2n1 | -14.4% | 6.51 µM [falling, partial curve, poor fit] | 
CCN=C(NCC)SC1CC(=O)N(c2ccccc2)C1=O (stereo not drawn) | 33.7% |  | 5.8 µM [rising, full curve, poor fit]
Cc1c(NC(=O)COC(=O)c2ccccc2Cl)c(=O)n(-c2ccccc2)n1C | 12.5% | 16.4 µM [rising, single point] | 
Cc1cc2oc(=O)cc(CN3CCCc4ccccc43)c2cc1C | -26.2% | 14.6 µM [falling, single point] | 
NNC(=O)c1nnn(-c2nonc2N)c1-c1cccs1 | 18.7% | 0.259 µM [rising, full curve, poor fit] | 
O=S(=O)(c1ccccc1)N1CC=C(c2ccccc2)CC1 | 32% | 4.11 µM [rising, full curve, poor fit] | 8.2 µM [rising, partial curve, poor fit]
CCCS(=O)(=O)N1CCCC(C(=O)NCCCN(CC)c2cccc(C)c2)C1 (stereo not drawn) | 15.9% |  | 
O=C(NS(=O)(=O)c1ccc(Cl)s1)c1ccccc1 | 8.29% |  | 
Oc1[nH]c2ccccc2c1N=NC(=S)NCCc1ccccc1 | 27.4% | 6.51 µM [rising, single point] | 6.51 µM [rising, single point]
Cc1ccc(-c2nc(N/N=C/c3ccncc3)c3ccccc3n2)cc1 | 151% | 3.26 µM [falling, single point] | 29.1 µM [rising, single point]

Complete entries from above.
`CCOC(=O)c1cc2c(=O)[nH]ccc2nc1C` reads cell number change: -27.1%; AC50 [1]: 23.1 µM [falling, single point]
`CC(C)C[C@H]1CNC(=O)C(=O)N1C[C@H](C)NC(=O)Cc1ccccc1` reads cell number change: 11.3%
